Results taken from article PMC3787057.
These are yes or no findings as the source states them, for the method shown. Binding seen in cells or lysates may run through a third protein. Some binding calls cover weakened binding; strength is not graded here.

Biological target: Cyclin-dependent kinase-5 (Cdk5) (human) (UniProt Q00535)
Assay: co-IP; hBMEC (hCMEC/D3) cell lysate in modified RIPA lacking ionic detergent, pre-cleared with sepharose-A slurry, protein A-sepharose CL-4B, Western blot; which of the two proteins was precipitated is not told

Substance: myocyte enhancer factor MEF2C (from UniProt Q06413 1-473)
- binding: binds
